These are yes or no findings as the source states them, for the method shown. In cells and extracts the contact can be indirect. These calls come from enrichment with a bait or labelling near it, and not all partners need be listed.
Assays:
[1] = molecular target: Mitochondrial E3 ubiquitin ligase 1 (MUL1) (human (endogenous in T24 and UM-UC-3)) (UniProt Q969V5); assay: affinity purification with mass spectrometry; co-IP of MUL1 from T24 and UM-UC-3 cells followed by MS; proteins overlapping in both cell lines
[2] = molecular target: GFP-tagged wild-type HSPA9 (OE-HSPA9) (human) (UniProt P38646); assay: affinity purification with mass spectrometry; co-IP and MS (qualitative and comparative quantitative proteomics) from mitochondria-free cell lysates of OE-HSPA9 and OE-HSPA9-K612R cells

Sequences of proteins named here, by UniProt entry; tags and fusion partners are left off. Residues count along the entry.
UniProt Q969V5: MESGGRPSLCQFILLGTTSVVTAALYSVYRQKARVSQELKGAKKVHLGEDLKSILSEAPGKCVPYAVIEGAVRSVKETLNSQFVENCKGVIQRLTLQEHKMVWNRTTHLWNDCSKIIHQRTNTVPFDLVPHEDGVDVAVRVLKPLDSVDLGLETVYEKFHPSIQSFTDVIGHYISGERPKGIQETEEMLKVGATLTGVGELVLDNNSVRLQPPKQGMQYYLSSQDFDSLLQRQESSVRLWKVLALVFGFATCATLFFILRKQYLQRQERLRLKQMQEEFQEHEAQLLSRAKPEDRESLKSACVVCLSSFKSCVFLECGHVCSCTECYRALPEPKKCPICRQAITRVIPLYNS
UniProt P38646, residues 47-679: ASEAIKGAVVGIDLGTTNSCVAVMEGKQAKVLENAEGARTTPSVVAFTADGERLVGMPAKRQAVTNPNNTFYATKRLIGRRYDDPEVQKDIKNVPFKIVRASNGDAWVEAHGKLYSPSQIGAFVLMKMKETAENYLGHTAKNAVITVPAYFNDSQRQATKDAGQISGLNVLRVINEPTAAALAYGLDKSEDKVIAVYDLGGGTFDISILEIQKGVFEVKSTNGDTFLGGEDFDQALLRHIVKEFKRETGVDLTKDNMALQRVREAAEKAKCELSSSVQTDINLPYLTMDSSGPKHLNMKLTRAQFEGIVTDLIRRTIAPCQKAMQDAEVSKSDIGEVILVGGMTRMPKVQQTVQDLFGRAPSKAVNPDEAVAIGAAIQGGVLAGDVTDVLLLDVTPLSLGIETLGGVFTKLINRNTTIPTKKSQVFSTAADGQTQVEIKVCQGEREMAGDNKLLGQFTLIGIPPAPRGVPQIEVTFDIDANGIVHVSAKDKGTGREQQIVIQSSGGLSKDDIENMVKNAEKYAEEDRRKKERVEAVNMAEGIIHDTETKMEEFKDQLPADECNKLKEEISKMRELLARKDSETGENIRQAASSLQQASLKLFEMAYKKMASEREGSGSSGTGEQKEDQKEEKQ
UniProt Q15022: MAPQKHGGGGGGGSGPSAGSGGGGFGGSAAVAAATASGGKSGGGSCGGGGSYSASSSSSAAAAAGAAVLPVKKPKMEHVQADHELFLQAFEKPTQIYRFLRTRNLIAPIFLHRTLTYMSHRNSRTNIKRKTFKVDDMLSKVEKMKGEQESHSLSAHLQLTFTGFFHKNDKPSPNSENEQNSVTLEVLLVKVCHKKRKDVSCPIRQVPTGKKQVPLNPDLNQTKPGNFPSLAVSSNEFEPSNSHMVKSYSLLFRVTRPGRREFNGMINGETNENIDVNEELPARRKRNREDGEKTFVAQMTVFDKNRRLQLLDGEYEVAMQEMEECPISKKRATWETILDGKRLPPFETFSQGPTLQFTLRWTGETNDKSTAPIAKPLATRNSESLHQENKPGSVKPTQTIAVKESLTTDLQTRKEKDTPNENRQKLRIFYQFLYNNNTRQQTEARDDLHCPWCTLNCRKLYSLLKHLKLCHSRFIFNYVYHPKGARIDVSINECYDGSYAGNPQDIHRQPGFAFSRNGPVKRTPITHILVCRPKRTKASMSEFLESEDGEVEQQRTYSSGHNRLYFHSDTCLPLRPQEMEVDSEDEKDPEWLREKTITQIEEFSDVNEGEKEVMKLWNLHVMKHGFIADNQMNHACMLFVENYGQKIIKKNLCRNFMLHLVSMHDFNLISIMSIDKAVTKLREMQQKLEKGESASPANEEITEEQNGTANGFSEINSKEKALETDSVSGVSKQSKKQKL

Substance: HSPA9 (from UniProt P38646 47-679)
- binding [1]: binds

Substance: SUZ12 (from UniProt Q15022 1-739)
- binding [2]: binds

Reference: paper PMC11302872
